Assay results as given in PubChem BioAssay AID2417 (National Center for Advancing Translational Sciences (NCATS), 2010).
Hit rate of the full screen: of about 140,000 compounds, about 4,300 (3.1%) were called active. The inconclusive results got no clear call from the source; some entries with a clear call stand among them for comparison.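 Rule for the calls: active = readout at or below -70, meaning at least 70% loss of cells showing the perinucleolar compartment, a nuclear body marking cancer cells; inconclusive = readout between -30 and a set limit; inactive = the rest.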

Assay: High Content Assay for Compounds that inhibit the Assembly of the Perinucleolar Compartment;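 note: plate controls were DMSO wells for no effect and camptothecin positive control wells for full effect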
Details: PC3M PTB-GFP, PNC prevalence imaging, 16 h; at 10 µM; hits give low values
Method in brief: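 Read-out is percentage of cells bearing a perinucleolar compartment, from automated 20x imaging of fixed, Hoechst-stained PC3M PTB-GFP cells. Cells were seeded 4 h, then exposed 16 h to compound (23 nl of library stock) in duplicate plates.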

SMILES | activity change (PNC), negative = inhibition
COC(=O)C1(C)CN(S(=O)(=O)c2ccc(C)cc2)c2cc(OC)ccc2C1=O (stereo not given) | inconclusive: -42.8%
Cc1ccccc1-n1c(SCC(=O)Nc2ccc3c(c2)OCO3)nnc1-c1ccccn1 | inconclusive: -30.8%
COc1ccc(CCNC(=O)C2CC(c3c(Cl)cccc3Cl)=NO2)cc1 (stereo not given) | inconclusive: -42.3%
Cc1ccc(-n2nc(CN3CCOCC3)c(-c3ccccc3)c2N)c(C)c1 | inactive: 11.4%
CC(=O)NN=C1CCC(c2ccccc2)CC1 (stereo not given) | inconclusive: -42.9%
O=C(c1ccco1)N1CCN(C(=O)C2CCCN(S(=O)(=O)Cc3ccccc3)C2)CC1 (stereo not given) | inconclusive: -59.1%
O=C(CCCc1cccs1)Nc1nc2c(s1)CCCC2 | inactive: -23%
CCCCOC(=O)c1cccc(NC(=O)CCC(=O)O)c1 | inactive: 51.7%
CC(NC(=O)c1ccc(N(C)C)cc1)C1CC2CCC1C2 (stereo not given) | inconclusive: -33.4%
S=c1[nH]nc(-c2ccc(Cl)cc2)n1Cc1ccccc1 | inactive: 4.68%
C=CCSC1=C(C#N)C(c2ccccc2)CC(=O)N1 (stereo not given) | inconclusive: -79.5%
COc1ccccc1CNC(=O)C1CC(c2ccc([N+](=O)[O-])cc2)=NO1 (stereo not given) | inconclusive: -38.3%
O=C1/C(=C/c2cccnc2)CCC/C1=C\c1cccnc1 | inactive: 6.59%
Cc1cc2ccccc2n1CCNC(=O)c1ccc(S(=O)(=O)N2CCCCC2)cc1 | inactive: 68.8%
c1ccc(-n2nnnc2-n2cnc3ccccc32)cc1 | inconclusive: -68.2%
COc1cccc(/C=N/NC(=O)c2ccc(=O)n(C)c2)c1O | inconclusive: -36.7%
Cc1nc(N2CCN(S(=O)(=O)c3ccccc3)CC2)c2cc(-c3ccccc3)sc2n1 | inconclusive: -62.9%
CCOc1cc(CNn2cnnc2)ccc1OCC(=O)NC1CCCCC1 | inconclusive: -44.3%
CCn1nc2cc(C(=O)NCC34CC5CC(CC(C5)C3)C4)ccc2c1OC | inconclusive: -56%
COc1ccc(C(=O)NC(=S)NC(C)C)cc1Br | inconclusive: -40.2%
CCCc1nc2ccccc2c(C(=O)OCC(=O)NCc2ccco2)c1CC | inconclusive: -52.8%
CCCN(Cc1cc2ccc(C)cc2[nH]c1=O)S(=O)(=O)c1ccccc1 | inconclusive: -42.5%
COc1cccc(Nc2nc(NCCO)c3ccccc3n2)c1 | inactive: 18.2%
Cc1ccc(NC(=O)Nc2ccc(C(=O)N3CCOCC3)cc2)cc1 | inconclusive: -45.5%
CC(=O)Nc1ccc(Oc2cc(C#N)c(C#N)cc2N2CCOCC2)cc1 | inconclusive: -33.7%

Quoted from the listing:
Entry for COc1ccccc1CNC(=O)C1CC(c2ccc([N+](=O)[O-])cc2)=NO1 (stereo not given) under activity change (PNC), negative = inhibition: inconclusive: -38.3%
Entry for CCCCOC(=O)c1cccc(NC(=O)CCC(=O)O)c1 under activity change (PNC), negative = inhibition: inactive: 51.7%
